Source: the supplement of paper PMC8612539
Values after ≈ are worked out from the molar mass of the structure shown. The source gives many values for each of these; only a part stands here.

Test system: Escherichia coli
Assay: minimum inhibitory concentration (MIC)
Procedure: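 Broth microdilution MIC (Sensititre BOPO7F bovine plate, CLSI methods) of 19 antimicrobials against field isolates of P. multocida, M. haemolytica, H. somni (deep nasopharyngeal swabs) and E. coli, Enterococcus spp. (rectal swabs) from weaned dairy heifers. Incubation 16-24 h at 35 C. MIC is the lowest concentration preventing visible growth. Values with <= or > lie at the tested range limits. Trimethoprim-sulfamethoxazole is given as the trimethoprim component of a 1:19 mixture.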

CN(C)[C@@H]1C(O)=C(C(N)=O)C(=O)[C@@]2(O)C(O)=C3C(=O)c4c(O)cccc4[C@@](C)(O)[C@H]3C[C@@H]12 [Tetracycline]
Settings	minimum inhibitory concentration [µg/mL]
isolate (source animal id): 1	1 (≈ 2.25 µM)
isolate (source animal id): 2	> 8
isolate (source animal id): 3	> 8
isolate (source animal id): 4	> 8
isolate (source animal id): 5	> 8
isolate (source animal id): 6	> 8
isolate (source animal id): 7	> 8
isolate (source animal id): 17	> 8
isolate (source animal id): 18	> 8
isolate (source animal id): 19	1 (≈ 2.25 µM)
isolate (source animal id): 20	> 8
isolate (source animal id): 21	> 8
isolate (source animal id): 22	1 (≈ 2.25 µM)
isolate (source animal id): 23	1 (≈ 2.25 µM)
isolate (source animal id): 24	> 8
isolate (source animal id): 25	> 8
isolate (source animal id): 26	1 (≈ 2.25 µM)
isolate (source animal id): 27	> 8
isolate (source animal id): 28	1 (≈ 2.25 µM)
isolate (source animal id): 29	> 8
isolate (source animal id): 30	> 8
isolate (source animal id): 31	> 8
isolate (source animal id): 32	> 8
isolate (source animal id): 33	> 8
isolate (source animal id): 34	> 8
isolate (source animal id): 35	> 8
isolate (source animal id): 36	> 8
isolate (source animal id): 37	> 8
isolate (source animal id): 38	> 8
isolate (source animal id): 39	> 8
isolate (source animal id): 40	> 8
isolate (source animal id): 41	> 8
isolate (source animal id): 42	> 8
isolate (source animal id): 43	> 8
isolate (source animal id): 44	> 8
isolate (source animal id): 45	> 8
isolate (source animal id): 46	> 8
isolate (source animal id): 47	> 8
isolate (source animal id): 48	> 8
isolate (source animal id): 49	> 8
isolate (source animal id): 50	> 8
isolate (source animal id): 51	> 8
isolate (source animal id): 52	1 (≈ 2.25 µM)
isolate (source animal id): 53	> 8
isolate (source animal id): 54	> 8
isolate (source animal id): 55	> 8
isolate (source animal id): 56	2 (≈ 4.5 µM)
isolate (source animal id): 57	> 8
isolate (source animal id): 58	> 8
isolate (source animal id): 59	1 (≈ 2.25 µM)
isolate (source animal id): 60	> 8
isolate (source animal id): 61	> 8
isolate (source animal id): 62	> 8
isolate (source animal id): 63	> 8
isolate (source animal id): 64	> 8
isolate (source animal id): 65	> 8
isolate (source animal id): 66	> 8
isolate (source animal id): 67	> 8
isolate (source animal id): 68	> 8
isolate (source animal id): 69	> 8
isolate (source animal id): 70	> 8
isolate (source animal id): 71	> 8
isolate (source animal id): 72	> 8
isolate (source animal id): 73	1 (≈ 2.25 µM)
isolate (source animal id): 74	> 8
isolate (source animal id): 75	> 8
isolate (source animal id): 76	> 8
isolate (source animal id): 77	> 8
isolate (source animal id): 78	> 8
isolate (source animal id): 79	> 8
isolate (source animal id): 80	1 (≈ 2.25 µM)
isolate (source animal id): 81	> 8
isolate (source animal id): 82	> 8
isolate (source animal id): 83	> 8
isolate (source animal id): 84	> 8
isolate (source animal id): 85	1 (≈ 2.25 µM)
isolate (source animal id): 86	> 8
isolate (source animal id): 87	> 8
isolate (source animal id): 88	> 8
isolate (source animal id): 89	> 8
isolate (source animal id): 90	> 8
isolate (source animal id): 91	> 8
isolate (source animal id): 92	> 8
isolate (source animal id): 93	> 8
isolate (source animal id): 94	> 8
isolate (source animal id): 95	> 8
isolate (source animal id): 96	> 8
isolate (source animal id): 97	> 8
isolate (source animal id): 189	> 8
isolate (source animal id): 190	> 8
isolate (source animal id): 191	1 (≈ 2.25 µM)
isolate (source animal id): 192	> 8
isolate (source animal id): 193	> 8
isolate (source animal id): 194	1 (≈ 2.25 µM)
isolate (source animal id): 195	1 (≈ 2.25 µM)
isolate (source animal id): 196	> 8
isolate (source animal id): 197	> 8
isolate (source animal id): 198	> 8
isolate (source animal id): 199	> 8
isolate (source animal id): 200	> 8
isolate (source animal id): 201	> 8
isolate (source animal id): 202	> 8
isolate (source animal id): 203	> 8
isolate (source animal id): 204	> 8
isolate (source animal id): 205	> 8
isolate (source animal id): 206	1 (≈ 2.25 µM)
isolate (source animal id): 207	> 8
isolate (source animal id): 208	> 8
isolate (source animal id): 209	> 8
isolate (source animal id): 210	> 8
isolate (source animal id): 211	> 8
isolate (source animal id): 212	> 8
isolate (source animal id): 213	> 8
isolate (source animal id): 214	> 8
isolate (source animal id): 215	1 (≈ 2.25 µM)
isolate (source animal id): 216	> 8
isolate (source animal id): 217	1 (≈ 2.25 µM)
isolate (source animal id): 218	2 (≈ 4.5 µM)
isolate (source animal id): 219	> 8
isolate (source animal id): 220	> 8
isolate (source animal id): 221	1 (≈ 2.25 µM)
isolate (source animal id): 222	1 (≈ 2.25 µM)
isolate (source animal id): 223	> 8
isolate (source animal id): 224	> 8
isolate (source animal id): 225	> 8
isolate (source animal id): 226	> 8
isolate (source animal id): 227	> 8
isolate (source animal id): 228	> 8
isolate (source animal id): 229	> 8
isolate (source animal id): 230	1 (≈ 2.25 µM)
isolate (source animal id): 231	> 8
isolate (source animal id): 232	2 (≈ 4.5 µM)
isolate (source animal id): 233	> 8
isolate (source animal id): 234	2 (≈ 4.5 µM)
isolate (source animal id): 235	> 8
isolate (source animal id): 236	> 8
isolate (source animal id): 237	> 8
isolate (source animal id): 238	> 8
isolate (source animal id): 239	2 (≈ 4.5 µM)
isolate (source animal id): 240	> 8
isolate (source animal id): 241	> 8
isolate (source animal id): 242	1 (≈ 2.25 µM)
isolate (source animal id): 243	> 8
isolate (source animal id): 244	2 (≈ 4.5 µM)
isolate (source animal id): 245	> 8
isolate (source animal id): 246	> 8
isolate (source animal id): 247	> 8
isolate (source animal id): 248	> 8
isolate (source animal id): 249	2 (≈ 4.5 µM)
isolate (source animal id): 250	> 8
isolate (source animal id): 251	> 8
isolate (source animal id): 252	> 8
isolate (source animal id): 253	> 8
isolate (source animal id): 254	> 8
isolate (source animal id): 255	> 8
isolate (source animal id): 256	> 8
isolate (source animal id): 257	> 8
isolate (source animal id): 258	1 (≈ 2.25 µM)
isolate (source animal id): 259	> 8
isolate (source animal id): 260	> 8
isolate (source animal id): 261	1 (≈ 2.25 µM)
isolate (source animal id): 262	> 8
isolate (source animal id): 263	> 8
isolate (source animal id): 264	2 (≈ 4.5 µM)
isolate (source animal id): 265	> 8
isolate (source animal id): 266	1 (≈ 2.25 µM)
isolate (source animal id): 267	> 8
isolate (source animal id): 268	> 8
isolate (source animal id): 269	> 8
isolate (source animal id): 270	> 8
isolate (source animal id): 271	> 8
isolate (source animal id): 272	1 (≈ 2.25 µM)
isolate (source animal id): 273	> 8
isolate (source animal id): 274	> 8
isolate (source animal id): 275	> 8
isolate (source animal id): 276	> 8
isolate (source animal id): 277	1 (≈ 2.25 µM)
isolate (source animal id): 278	1 (≈ 2.25 µM)
isolate (source animal id): 279	> 8
isolate (source animal id): 280	> 8
isolate (source animal id): 281	> 8
isolate (source animal id): 282	1 (≈ 2.25 µM)
isolate (source animal id): 283	2 (≈ 4.5 µM)
isolate (source animal id): 284	> 8
isolate (source animal id): 285	1 (≈ 2.25 µM)
isolate (source animal id): 286	> 8
isolate (source animal id): 287	> 8
isolate (source animal id): 288	1 (≈ 2.25 µM)
isolate (source animal id): 289	1 (≈ 2.25 µM)
isolate (source animal id): 290	> 8
isolate (source animal id): 291	> 8
isolate (source animal id): 292	> 8
isolate (source animal id): 293	> 8
isolate (source animal id): 294	> 8
isolate (source animal id): 295	> 8
isolate (source animal id): 296	> 8
isolate (source animal id): 297	2 (≈ 4.5 µM)
isolate (source animal id): 298	> 8
isolate (source animal id): 299	> 8
isolate (source animal id): 300	> 8
isolate (source animal id): 301	> 8
isolate (source animal id): 302	> 8
isolate (source animal id): 303	1 (≈ 2.25 µM)
isolate (source animal id): 304	> 8
isolate (source animal id): 305	1 (≈ 2.25 µM)
isolate (source animal id): 306	> 8
isolate (source animal id): 307	> 8
isolate (source animal id): 308	> 8
isolate (source animal id): 309	> 8
isolate (source animal id): 310	2 (≈ 4.5 µM)
isolate (source animal id): 311	> 8
isolate (source animal id): 312	> 8
isolate (source animal id): 313	> 8
isolate (source animal id): 314	> 8
isolate (source animal id): 315	1 (≈ 2.25 µM)
isolate (source animal id): 316	> 8
isolate (source animal id): 317	> 8
isolate (source animal id): 318	> 8
isolate (source animal id): 319	> 8
isolate (source animal id): 320	> 8
isolate (source animal id): 321	> 8
isolate (source animal id): 322	> 8
isolate (source animal id): 323	1 (≈ 2.25 µM)
isolate (source animal id): 324	> 8
isolate (source animal id): 325	1 (≈ 2.25 µM)
isolate (source animal id): 326	> 8
isolate (source animal id): 327	> 8
isolate (source animal id): 328	1 (≈ 2.25 µM)
isolate (source animal id): 329	> 8
isolate (source animal id): 330	> 8
isolate (source animal id): 331	> 8
isolate (source animal id): 332	1 (≈ 2.25 µM)
isolate (source animal id): 333	> 8
isolate (source animal id): 334	> 8
isolate (source animal id): 335	> 8
isolate (source animal id): 336	> 8
isolate (source animal id): 337	> 8
isolate (source animal id): 338	> 8
isolate (source animal id): 339	> 8
isolate (source animal id): 340	> 8
isolate (source animal id): 341	1 (≈ 2.25 µM)
